# Experimental data reported in the supplement of paper PMC8728848.
# This is one part of the list.
# Experiments:
# Assay in all cases: glycan array binding signal (z-score within array); higher = stronger binding
# Conditions in all cases: glycan notation: IUPAC condensed, linker removed
# Neu5Ac(a2-6)Gal = molecular target: Neu5Ac(a2-6)Gal
# Summary of the method: (§1)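 The Consortium for Functional Glycomics database supplied 3228 glycan arrays, of which those lacking an available protein sequence were dropped. The binding signal, a within-array Z-score, was averaged across arrays of the same protein sequence and across linkers. Negative scores can be read as non-binding.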
# [1] = molecular target: Neu5Ac(a2-6)Gal(b1-3)GlcNAc(b1-3)[Gal(b1-4)GlcNAc(b1-6)]Gal(b1-4)Glc
# Summary of the method: as §1
# Neu5Ac(a2-6)Gal(b1-4)Glc = molecular target: Neu5Ac(a2-6)Gal(b1-4)Glc
# Summary of the method: as §1
# [2] = molecular target: Neu5Ac(a2-6)Gal(b1-4)GlcNAc
# Summary of the method: as §1
# [3] = molecular target: Neu5Ac(a2-6)Gal(b1-4)GlcNAc(b1-2)Man
# Summary of the method: as §1
# [4] = molecular target: Neu5Ac(a2-6)Gal(b1-4)GlcNAc(b1-2)Man(a1-3)Man(b1-4)GlcNAc(b1-4)GlcNAc
# Summary of the method: as §1
# [5] = molecular target: Neu5Ac(a2-6)Gal(b1-4)GlcNAc(b1-2)Man(a1-3)[Gal(b1-4)GlcNAc(b1-2)Man(a1-6)]Man(b1-4)GlcNAc(b1-4)GlcNAc
# Summary of the method: as §1
# [6] = molecular target: Neu5Ac(a2-6)Gal(b1-4)GlcNAc(b1-2)Man(a1-3)[GlcNAc(b1-2)Man(a1-6)]Man(b1-4)GlcNAc(b1-4)GlcNAc
# Summary of the method: as §1
# [7] = molecular target: Neu5Ac(a2-6)Gal(b1-4)GlcNAc(b1-2)Man(a1-3)[GlcNAc(b1-2)Man(b1-4)GlcNAc(b1-2)Man(a1-6)]Man(b1-4)GlcNAc(b1-4)GlcNAc
# Summary of the method: as §1
# [8] = molecular target: Neu5Ac(a2-6)Gal(b1-4)GlcNAc(b1-2)Man(a1-3)[GlcNAc(b1-4)][Neu5Ac(a2-6)Gal(b1-4)GlcNAc(b1-2)Man(a1-6)]Man(b1-4)GlcNAc(b1-4)GlcNAc
# Summary of the method: as §1
# [9] = molecular target: Neu5Ac(a2-6)Gal(b1-4)GlcNAc(b1-2)Man(a1-3)[Man(a1-6)]Man(b1-4)GlcNAc(b1-4)GlcNAc
# Summary of the method: as §1
# [10] = molecular target: Neu5Ac(a2-6)Gal(b1-4)GlcNAc(b1-2)Man(a1-3)[Neu5Ac(a2-3)Gal(b1-4)GlcNAc(b1-2)Man(a1-6)]Man(b1-4)GlcNAc(b1-4)GlcNAc
# Summary of the method: as §1
# [11] = molecular target: Neu5Ac(a2-6)Gal(b1-4)GlcNAc(b1-2)Man(a1-3)[Neu5Ac(a2-6)Gal(b1-4)GlcNAc(b1-2)Man(a1-6)]Man(b1-4)GlcNAc(b1-4)GlcNAc
# Summary of the method: as §1
# [12] = molecular target: Neu5Ac(a2-6)Gal(b1-4)GlcNAc(b1-2)Man(a1-3)[Neu5Ac(a2-6)Gal(b1-4)GlcNAc(b1-2)Man(a1-6)]Man(b1-4)GlcNAc(b1-4)[Fuc(a1-6)]GlcNAc
# Summary of the method: as §1
# [13] = molecular target: Neu5Ac(a2-6)Gal(b1-4)GlcNAc(b1-2)Man(a1-6)Man(b1-4)GlcNAc(b1-4)GlcNAc
# Summary of the method: as §1
# [14] = molecular target: Neu5Ac(a2-6)Gal(b1-4)GlcNAc(b1-2)Man(a1-6)[Gal(b1-4)GlcNAc(b1-2)Man(a1-3)]Man(b1-4)GlcNAc(b1-4)GlcNAc
# Summary of the method: as §1
# [15] = molecular target: Neu5Ac(a2-6)Gal(b1-4)GlcNAc(b1-2)Man(a1-6)[GlcNAc(b1-2)Man(a1-3)]Man(b1-4)GlcNAc(b1-4)GlcNAc
# Summary of the method: as §1
# [16] = molecular target: Neu5Ac(a2-6)Gal(b1-4)GlcNAc(b1-2)Man(a1-6)[Man(a1-3)]Man(b1-4)GlcNAc(b1-4)GlcNAc
# Summary of the method: as §1
# [17] = molecular target: Neu5Ac(a2-6)Gal(b1-4)GlcNAc(b1-2)[Neu5Ac(a2-6)Gal(b1-4)GlcNAc(b1-4)]Man(a1-3)[GlcNAc(b1-4)][Neu5Ac(a2-6)Gal(b1-4)GlcNAc(b1-2)[Neu5Ac(a2-6)Gal(b1-4)GlcNAc(b1-6)]Man(a1-6)]Man(b1-4)GlcNAc(b1-4)GlcNAc
# Summary of the method: as §1
# [18] = molecular target: Neu5Ac(a2-6)Gal(b1-4)GlcNAc(b1-2)[Neu5Ac(a2-6)Gal(b1-4)GlcNAc(b1-4)]Man(a1-3)[GlcNAc(b1-4)][Neu5Ac(a2-6)Gal(b1-4)GlcNAc(b1-4)Man(a1-6)]Man(b1-4)GlcNAc(b1-4)GlcNAc
# Summary of the method: as §1
# [19] = molecular target: Neu5Ac(a2-6)Gal(b1-4)GlcNAc(b1-2)[Neu5Ac(a2-6)Gal(b1-4)GlcNAc(b1-6)]Man(a1-6)[Neu5Ac(a2-6)Gal(b1-4)GlcNAc(b1-2)Man(a1-3)][GlcNAc(b1-4)]Man(b1-4)GlcNAc(b1-4)GlcNAc
# Summary of the method: as §1
# [20] = molecular target: Neu5Ac(a2-6)Gal(b1-4)GlcNAc(b1-3)Gal(b1-3)GlcNAc
# Summary of the method: as §1
# [21] = molecular target: Neu5Ac(a2-6)Gal(b1-4)GlcNAc(b1-3)Gal(b1-4)GlcNAc
# Summary of the method: as §1
# [22] = molecular target: Neu5Ac(a2-6)Gal(b1-4)GlcNAc(b1-3)Gal(b1-4)GlcNAc(b1-2)Man(a1-3)[Neu5Ac(a2-6)Gal(b1-4)GlcNAc(b1-3)Gal(b1-4)GlcNAc(b1-2)Man(a1-6)]GalNAc
# Summary of the method: as §1
# [23] = molecular target: Neu5Ac(a2-6)Gal(b1-4)GlcNAc(b1-3)Gal(b1-4)GlcNAc(b1-3)Gal(b1-4)GlcNAc
# Summary of the method: as §1
# [24] = molecular target: Neu5Ac(a2-6)Gal(b1-4)GlcNAc(b1-3)Gal(b1-4)GlcNAc(b1-3)Gal(b1-4)GlcNAc(b1-2)Man(a1-3)[Neu5Ac(a2-6)Gal(b1-4)GlcNAc(b1-3)Gal(b1-4)GlcNAc(b1-3)Gal(b1-4)GlcNAc(b1-2)Man(a1-6)]GalNAc
# Summary of the method: as §1
# [25] = molecular target: Neu5Ac(a2-6)Gal(b1-4)GlcNAc(b1-3)Gal(b1-4)GlcNAc(b1-3)GalNAc
# Summary of the method: as §1
# [26] = molecular target: Neu5Ac(a2-6)Gal(b1-4)GlcNAc(b1-3)Gal(b1-4)GlcNAc(b1-3)[Neu5Ac(a2-6)Gal(b1-4)GlcNAc(b1-3)Gal(b1-4)GlcNAc(b1-6)]GalNAc
# Summary of the method: as §1
# [27] = molecular target: Neu5Ac(a2-6)Gal(b1-4)GlcNAc(b1-3)Gal(b1-4)GlcNAc(b1-6)[Gal(b1-3)]GalNAc
# Summary of the method: as §1
# [28] = molecular target: Neu5Ac(a2-6)Gal(b1-4)GlcNAc(b1-3)Gal(b1-4)[Fuc(a1-3)]GlcNAc(b1-3)Gal(b1-4)[Fuc(a1-3)]GlcNAc
# Summary of the method: as §1
# [29] = molecular target: Neu5Ac(a2-6)Gal(b1-4)GlcNAc(b1-3)GalNAc
# Summary of the method: as §1
# [30] = molecular target: Neu5Ac(a2-6)Gal(b1-4)GlcNAc(b1-3)[Neu5Ac(a2-6)Gal(b1-4)GlcNAc(b1-6)]GalNAc
# Summary of the method: as §1
# [31] = molecular target: Neu5Ac(a2-6)Gal(b1-4)GlcNAc(b1-6)GalNAc
# Summary of the method: as §1
# [32] = molecular target: Neu5Ac(a2-6)Gal(b1-4)GlcNAc(b1-6)[Gal(b1-3)GlcNAc(b1-3)]Gal(b1-4)Glc
# Summary of the method: as §1
# [33] = molecular target: Neu5Ac(a2-6)Gal(b1-4)GlcNAc(b1-6)[Gal(b1-3)]GalNAc
# Summary of the method: as §1
# [34] = molecular target: Neu5Ac(a2-6)Gal(b1-4)GlcNAc6S
# Summary of the method: as §1
binder,measurement,setting,value
"Flo1 (Saccharomyces cerevisiae), P32768 (protein) SGATEACLPAGQRKSGMNINFYQYSLKDSSTYSNAAYMAYGYASKTKLGSVGGQTDISIDYNIPCVSSSGTFPCPQEDSYGNWGCKGMGACSNSQGIAYWSTDLFGFYTTPTNVTLEMTGYFLPPQTGSYTFKFATVDDSAILSVGGATAFNCCAQQQPPITSTNFTIDGIKPWGGSLPPNIEGTVYMYAGYYYPMKVVYSNAVSWGTLPISVTLPDGTTVSDDFEGYVYSFDDDLSQSNCTVPDPSNY",glycan array binding signal (z-score),Neu5Ac(a2-6)Gal,-0.325
same,glycan array binding signal (z-score),[1],-0.17
same,glycan array binding signal (z-score),Neu5Ac(a2-6)Gal(b1-4)Glc,-0.397
same,glycan array binding signal (z-score),[2],-0.421
same,glycan array binding signal (z-score),[3],0.146
same,glycan array binding signal (z-score),[4],0.967
same,glycan array binding signal (z-score),[5],0.002
same,glycan array binding signal (z-score),[6],0.289
same,glycan array binding signal (z-score),[7],-0.442
same,glycan array binding signal (z-score),[8],-0.297
same,glycan array binding signal (z-score),[9],0.393
same,glycan array binding signal (z-score),[10],-0.072
same,glycan array binding signal (z-score),[11],0.464
same,glycan array binding signal (z-score),[12],-0.061
same,glycan array binding signal (z-score),[13],-0.065
same,glycan array binding signal (z-score),[14],-0.292
same,glycan array binding signal (z-score),[15],-0.105
same,glycan array binding signal (z-score),[16],0.239
same,glycan array binding signal (z-score),[17],-0.043
same,glycan array binding signal (z-score),[18],1.92
same,glycan array binding signal (z-score),[19],-0.123
same,glycan array binding signal (z-score),[20],-0.069
same,glycan array binding signal (z-score),[21],-0.761
same,glycan array binding signal (z-score),[22],-0.434
same,glycan array binding signal (z-score),[23],-0.301
same,glycan array binding signal (z-score),[24],0.166
same,glycan array binding signal (z-score),[25],-0.113
same,glycan array binding signal (z-score),[26],-0.177
same,glycan array binding signal (z-score),[27],1.52
same,glycan array binding signal (z-score),[28],-0.037
same,glycan array binding signal (z-score),[29],0.748
same,glycan array binding signal (z-score),[30],-0.153
same,glycan array binding signal (z-score),[31],0.312
same,glycan array binding signal (z-score),[32],-0.291
same,glycan array binding signal (z-score),[33],0.705
same,glycan array binding signal (z-score),[34],0.033

# Pulled one by one from the list above (2):
binder,measurement,setting,value
"Flo1 (Saccharomyces cerevisiae), P32768 (protein) SGATEACLPAGQRKSGMNINFYQYSLKDSSTYSNAAYMAYGYASKTKLGSVGGQTDISIDYNIPCVSSSGTFPCPQEDSYGNWGCKGMGACSNSQGIAYWSTDLFGFYTTPTNVTLEMTGYFLPPQTGSYTFKFATVDDSAILSVGGATAFNCCAQQQPPITSTNFTIDGIKPWGGSLPPNIEGTVYMYAGYYYPMKVVYSNAVSWGTLPISVTLPDGTTVSDDFEGYVYSFDDDLSQSNCTVPDPSNY",glycan array binding signal (z-score),Neu5Ac(a2-6)Gal(b1-4)Glc,-0.397
same,glycan array binding signal (z-score),[30],-0.153
